{
  "sequences": {"note": "Protein sequences, listed by entry. Tags and fused reporters are not part of them. Lines headed by an entry give the natural chain unless they say otherwise; changes in a name come on top. Residues count along the entry.", "UniProt P78527": "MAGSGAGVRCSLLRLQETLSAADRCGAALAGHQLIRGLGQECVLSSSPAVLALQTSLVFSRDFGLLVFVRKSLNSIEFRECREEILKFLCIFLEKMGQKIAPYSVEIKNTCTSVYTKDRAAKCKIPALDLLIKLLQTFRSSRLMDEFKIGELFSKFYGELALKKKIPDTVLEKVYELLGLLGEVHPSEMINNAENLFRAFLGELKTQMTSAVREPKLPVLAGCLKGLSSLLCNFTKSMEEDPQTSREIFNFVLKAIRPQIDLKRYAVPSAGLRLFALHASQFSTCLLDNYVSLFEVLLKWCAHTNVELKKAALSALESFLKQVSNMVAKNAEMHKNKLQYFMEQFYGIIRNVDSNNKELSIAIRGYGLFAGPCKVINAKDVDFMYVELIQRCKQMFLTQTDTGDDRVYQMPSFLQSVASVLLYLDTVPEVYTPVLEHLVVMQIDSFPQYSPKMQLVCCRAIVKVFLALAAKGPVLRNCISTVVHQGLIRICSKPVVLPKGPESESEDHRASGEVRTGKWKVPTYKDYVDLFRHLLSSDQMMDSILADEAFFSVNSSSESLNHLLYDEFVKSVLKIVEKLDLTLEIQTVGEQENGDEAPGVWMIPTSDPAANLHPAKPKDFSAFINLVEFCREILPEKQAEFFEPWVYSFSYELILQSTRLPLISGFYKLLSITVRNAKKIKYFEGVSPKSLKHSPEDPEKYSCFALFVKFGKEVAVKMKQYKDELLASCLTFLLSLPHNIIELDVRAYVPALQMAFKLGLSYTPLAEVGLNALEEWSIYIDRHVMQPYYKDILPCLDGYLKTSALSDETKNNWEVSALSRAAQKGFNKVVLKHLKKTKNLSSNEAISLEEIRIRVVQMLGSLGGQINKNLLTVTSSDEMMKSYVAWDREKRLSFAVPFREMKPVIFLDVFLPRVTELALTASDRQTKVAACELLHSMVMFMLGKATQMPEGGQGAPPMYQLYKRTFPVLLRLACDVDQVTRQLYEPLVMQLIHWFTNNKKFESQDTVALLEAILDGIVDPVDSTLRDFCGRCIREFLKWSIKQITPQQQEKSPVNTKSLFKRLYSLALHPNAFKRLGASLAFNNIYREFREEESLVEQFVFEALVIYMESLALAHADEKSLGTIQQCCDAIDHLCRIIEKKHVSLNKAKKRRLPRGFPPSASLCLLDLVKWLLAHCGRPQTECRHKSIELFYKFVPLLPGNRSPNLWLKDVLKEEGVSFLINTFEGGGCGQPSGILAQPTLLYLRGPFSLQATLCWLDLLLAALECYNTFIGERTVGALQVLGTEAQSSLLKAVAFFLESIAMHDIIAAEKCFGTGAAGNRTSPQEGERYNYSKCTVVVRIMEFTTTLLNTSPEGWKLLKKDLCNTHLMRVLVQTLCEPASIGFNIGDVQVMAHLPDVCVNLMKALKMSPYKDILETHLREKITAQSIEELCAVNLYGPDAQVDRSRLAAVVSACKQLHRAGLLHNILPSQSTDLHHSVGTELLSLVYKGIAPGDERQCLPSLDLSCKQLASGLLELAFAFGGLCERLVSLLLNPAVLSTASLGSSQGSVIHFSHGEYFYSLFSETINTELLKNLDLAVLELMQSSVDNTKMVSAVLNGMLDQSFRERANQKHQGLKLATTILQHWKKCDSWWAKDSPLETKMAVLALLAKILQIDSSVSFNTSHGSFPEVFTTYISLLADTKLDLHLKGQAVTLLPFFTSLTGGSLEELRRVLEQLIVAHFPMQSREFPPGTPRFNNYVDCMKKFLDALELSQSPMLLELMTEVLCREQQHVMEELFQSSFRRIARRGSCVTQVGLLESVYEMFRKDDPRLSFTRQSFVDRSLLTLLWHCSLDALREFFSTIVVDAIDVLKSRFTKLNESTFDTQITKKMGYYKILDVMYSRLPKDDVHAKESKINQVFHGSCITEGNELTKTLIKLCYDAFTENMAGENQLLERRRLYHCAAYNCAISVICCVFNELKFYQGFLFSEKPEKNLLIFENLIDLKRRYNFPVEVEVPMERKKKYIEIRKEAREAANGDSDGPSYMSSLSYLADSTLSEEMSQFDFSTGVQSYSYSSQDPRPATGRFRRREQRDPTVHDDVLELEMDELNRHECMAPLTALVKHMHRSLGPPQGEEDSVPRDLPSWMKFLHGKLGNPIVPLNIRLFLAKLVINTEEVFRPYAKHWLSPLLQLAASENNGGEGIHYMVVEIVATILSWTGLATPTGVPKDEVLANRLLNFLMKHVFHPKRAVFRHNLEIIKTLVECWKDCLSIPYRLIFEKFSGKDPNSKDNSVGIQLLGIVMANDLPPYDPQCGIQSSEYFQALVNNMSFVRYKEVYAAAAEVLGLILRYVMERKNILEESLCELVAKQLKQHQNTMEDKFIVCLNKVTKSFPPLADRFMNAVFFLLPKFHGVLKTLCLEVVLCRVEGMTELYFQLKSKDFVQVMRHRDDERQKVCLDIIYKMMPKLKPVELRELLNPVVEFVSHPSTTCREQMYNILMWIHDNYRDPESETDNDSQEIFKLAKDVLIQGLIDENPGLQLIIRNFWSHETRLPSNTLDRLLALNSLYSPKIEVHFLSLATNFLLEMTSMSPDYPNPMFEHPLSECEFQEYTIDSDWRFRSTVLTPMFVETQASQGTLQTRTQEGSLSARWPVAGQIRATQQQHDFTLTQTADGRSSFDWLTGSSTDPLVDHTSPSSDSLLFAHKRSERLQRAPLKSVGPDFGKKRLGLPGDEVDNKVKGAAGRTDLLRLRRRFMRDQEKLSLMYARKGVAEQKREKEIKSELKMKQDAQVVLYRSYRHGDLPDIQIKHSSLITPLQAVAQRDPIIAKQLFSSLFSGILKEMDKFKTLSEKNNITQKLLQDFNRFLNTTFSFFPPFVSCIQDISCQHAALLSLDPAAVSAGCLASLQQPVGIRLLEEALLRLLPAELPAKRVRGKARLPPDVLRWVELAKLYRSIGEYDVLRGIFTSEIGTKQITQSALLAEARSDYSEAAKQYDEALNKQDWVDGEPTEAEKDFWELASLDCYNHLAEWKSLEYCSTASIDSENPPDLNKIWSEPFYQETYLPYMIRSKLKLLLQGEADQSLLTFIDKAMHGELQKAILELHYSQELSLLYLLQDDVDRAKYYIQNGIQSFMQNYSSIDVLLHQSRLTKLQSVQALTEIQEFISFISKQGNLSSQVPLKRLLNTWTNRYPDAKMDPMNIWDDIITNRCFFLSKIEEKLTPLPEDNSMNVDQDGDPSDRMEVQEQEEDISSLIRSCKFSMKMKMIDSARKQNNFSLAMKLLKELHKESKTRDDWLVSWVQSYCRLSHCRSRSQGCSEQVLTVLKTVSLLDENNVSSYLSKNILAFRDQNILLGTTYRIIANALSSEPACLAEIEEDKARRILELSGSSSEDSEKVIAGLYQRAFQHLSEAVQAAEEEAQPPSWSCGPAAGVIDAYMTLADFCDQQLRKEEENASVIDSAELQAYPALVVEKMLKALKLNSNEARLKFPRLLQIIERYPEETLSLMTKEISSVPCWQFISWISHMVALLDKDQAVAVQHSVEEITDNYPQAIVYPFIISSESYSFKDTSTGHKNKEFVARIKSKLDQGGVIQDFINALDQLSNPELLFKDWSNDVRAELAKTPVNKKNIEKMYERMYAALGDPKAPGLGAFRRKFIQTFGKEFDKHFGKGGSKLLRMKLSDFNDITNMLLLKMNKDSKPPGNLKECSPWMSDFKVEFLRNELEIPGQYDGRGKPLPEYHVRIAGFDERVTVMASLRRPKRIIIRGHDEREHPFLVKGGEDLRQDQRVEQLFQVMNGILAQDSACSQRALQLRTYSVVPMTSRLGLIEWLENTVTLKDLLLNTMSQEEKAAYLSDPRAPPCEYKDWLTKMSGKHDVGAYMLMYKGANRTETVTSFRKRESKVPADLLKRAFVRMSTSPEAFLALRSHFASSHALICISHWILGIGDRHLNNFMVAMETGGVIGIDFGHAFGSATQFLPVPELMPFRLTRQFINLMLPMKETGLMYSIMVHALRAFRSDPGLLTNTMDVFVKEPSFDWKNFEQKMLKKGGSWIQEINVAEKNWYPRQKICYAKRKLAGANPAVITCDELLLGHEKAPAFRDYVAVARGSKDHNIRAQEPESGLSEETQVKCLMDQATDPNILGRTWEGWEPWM", "UniProt Q15843, residues 1-76": "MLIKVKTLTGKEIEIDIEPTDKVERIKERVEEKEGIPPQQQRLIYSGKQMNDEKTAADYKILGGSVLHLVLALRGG", "UniProt P12956": "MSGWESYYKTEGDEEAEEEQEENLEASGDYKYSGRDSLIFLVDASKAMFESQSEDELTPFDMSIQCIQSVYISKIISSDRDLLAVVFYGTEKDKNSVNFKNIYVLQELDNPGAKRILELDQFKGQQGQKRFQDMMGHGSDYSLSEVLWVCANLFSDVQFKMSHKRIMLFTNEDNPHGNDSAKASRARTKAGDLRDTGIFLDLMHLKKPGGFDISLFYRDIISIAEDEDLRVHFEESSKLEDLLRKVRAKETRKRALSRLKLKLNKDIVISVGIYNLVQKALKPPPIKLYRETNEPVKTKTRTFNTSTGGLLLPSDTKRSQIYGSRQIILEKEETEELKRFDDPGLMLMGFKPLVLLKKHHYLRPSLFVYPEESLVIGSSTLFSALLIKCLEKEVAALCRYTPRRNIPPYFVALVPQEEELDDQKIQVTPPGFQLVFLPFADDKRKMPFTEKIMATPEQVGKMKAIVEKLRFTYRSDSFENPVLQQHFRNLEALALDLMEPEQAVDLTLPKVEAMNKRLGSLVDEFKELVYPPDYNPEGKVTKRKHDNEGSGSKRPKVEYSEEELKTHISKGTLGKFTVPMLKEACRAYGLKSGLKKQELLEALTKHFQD", "UniProt P61081": "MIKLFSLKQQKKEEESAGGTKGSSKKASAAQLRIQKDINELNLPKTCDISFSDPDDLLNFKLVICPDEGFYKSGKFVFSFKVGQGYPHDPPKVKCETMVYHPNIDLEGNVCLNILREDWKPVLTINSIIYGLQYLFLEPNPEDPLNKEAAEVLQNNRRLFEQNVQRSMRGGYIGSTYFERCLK"},
  "source": "paper PMC7250858",
  "key": {"[1]": {"target": "Flag-tagged HUWE1 (UniProt Q7Z6Z7)", "test": "co-IP; immunoprecipitation of Flag-HUWE1 from cell lysate, blots for DNA-PKcs, Ku70/Ku80 and UBE2M"}, "[2]": {"target": "DNA-dependent protein kinase catalytic subunit (DNA-PKcs) (human (endogenous in the paper's human cell lines; line not stated for Fig. 3)) (UniProt P78527)", "test": "co-IP; immunoprecipitation with DNA-PKcs antibody from cell lysate (NETN-300 lysis, diluted with NETN-100, protein A/G agarose), blot for HUWE1"}, "[3]": {"target": "SFB-NEDD8 (wild type) (UniProt Q15843)", "test": "pull-down; pull-down of SFB-NEDD8 from lysate of transfected 293T cells, blots for endogenous Ku80 and Ku70 (Supplementary Fig. 1A)"}},
  "note": "No constants are given. Whether binding was seen depends on the method and setting. Binding seen in cells or lysates may run through a third protein. Some entries that bind do so weakly or less than the wild type.",
  "data": [
    {"substance": "DNA-dependent protein kinase catalytic subunit (DNA-PKcs) (from UniProt P78527 1-4128) (enzyme)", "values": [
      {"measurement": "binding", "setting": "[1]", "result": "binds"}
    ]},
    {"substance": "HUWE1 (HECT, UBA, and WWE domain containing E3 ubiquitin protein ligase 1), endogenous (from UniProt Q7Z6Z7 1-4374) (enzyme)", "values": [
      {"measurement": "binding", "setting": "[2]", "result": "binds"}
    ]},
    {"substance": "Ku70/Ku80 heterodimer (from UniProt P12956 1-609; P13010 1-732) (complex)", "values": [
      {"measurement": "binding", "setting": "[1]", "result": "binds"},
      {"measurement": "binding", "setting": "[3]", "result": "no binding"}
    ]},
    {"substance": "UBE2M (neddylation E2-conjugating enzyme) (from UniProt P61081 1-183)", "values": [
      {"measurement": "binding", "setting": "[1]", "result": "binds"}
    ]}
  ]
}
